Measured values published in article PMC2034084, “Pharmacokinetics and binding of the bioreductive probe for hypoxia, NITP: effect of route of administration” (British Journal of Cancer, 1995).

Tested on: CaNT tumours
Experiment: Bound adducts of NITP in cells from tumours, fluorescent immunochemical staining and flow cytometry
Type: in vivo, CBA mice
Settings: i.p. in peanut oil + 10% DMSO, 0.45 umol g-1
From the text: Britsh Journal of Cancer (1995) 72, 1462-1468 ft (32) 1995 Stockton Press All rights reserved 0007-0920/95 $12.00 Pharmacokinetics and binding of the bioreductive probe for hypoxia, NITP: effect of route of administration RJ Hodgkiss, MRL Stratford, MF Dennis and SA Hill Gray Laboratory Cancer Research Trust, P.O. Box 100, Mount Vernon Hospital, Northwood, Middlesex HA6 2JR, UK. Summary The novel compound 7-[4'-(2-nitroimidazol-l-yl)-butyl]-theophylline (NITP) can be used as an immunologically detectable probe for hypoxic cells. Because of the limited water solubility of NITP, it has been administered dissolved in peanut oil with 10% dimethylsulphoxide (DMSO). A new aqueous formulation has been devised, based on a 50% solution of a modified P-cyclodextrin (Molecusol HPB), which increases the water solubility of NITP 10-fold. […] Binding of the marker to hypoxic cells within tumours was also measured after the different routes of administration. […] The novel compound 7-[4'-(2-nitroimidazol-1-yl)-butyl]- theophylline (NITP), has been described as an immuno- logically detectable bioreductive probe for hypoxic cells (Hodgkiss et al., 1991), and appears to offer promise as a method of quantifying tumour hypoxia in vivo. […]

With `Cn1c(=O)c2c(ncn2CCCCn2ccnc2[N+](=O)[O-])n(C)c1=O` [NITP, 7-[4'-(2-nitroimidazol-l-yl)-butyl]-theophylline] as the molecule, how does the “time at which binding of NITP to cells in tumours began” value read?
Its value is roughly 30 min.

And the “time to plateau of binding in tumour cells” value?
The value was “about 60 min”.
